Common to all, as to assay: DAPPL (digital affinity profiling via proximity ligation, sequencing)
Common to all, as to settings: 10 mM Tris-HCl pH 7.5, 50 mM NaCl, 1 mM DTT, 4% glycerol, room temperature, 30 min; GST-TFs on glutathione beads, 16-mer random dsDNA library, 0.1% …; high values mean tight binding; double strand, one strand shown; scale: fold enrichment (6-mer frequency, TF over GST control)

Chains of the proteins cited; added tags and fusions are not shown. Lines headed by an entry give the natural chain unless they say otherwise; changes in a name come on top.
UniProt Q01892: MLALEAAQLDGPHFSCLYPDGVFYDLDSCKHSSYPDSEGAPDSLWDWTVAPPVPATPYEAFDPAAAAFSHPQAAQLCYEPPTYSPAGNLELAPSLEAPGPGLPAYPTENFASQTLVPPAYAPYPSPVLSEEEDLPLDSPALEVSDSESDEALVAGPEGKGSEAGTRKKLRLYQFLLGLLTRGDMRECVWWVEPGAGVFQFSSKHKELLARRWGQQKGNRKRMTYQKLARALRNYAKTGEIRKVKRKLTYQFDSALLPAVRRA
UniProt P41161: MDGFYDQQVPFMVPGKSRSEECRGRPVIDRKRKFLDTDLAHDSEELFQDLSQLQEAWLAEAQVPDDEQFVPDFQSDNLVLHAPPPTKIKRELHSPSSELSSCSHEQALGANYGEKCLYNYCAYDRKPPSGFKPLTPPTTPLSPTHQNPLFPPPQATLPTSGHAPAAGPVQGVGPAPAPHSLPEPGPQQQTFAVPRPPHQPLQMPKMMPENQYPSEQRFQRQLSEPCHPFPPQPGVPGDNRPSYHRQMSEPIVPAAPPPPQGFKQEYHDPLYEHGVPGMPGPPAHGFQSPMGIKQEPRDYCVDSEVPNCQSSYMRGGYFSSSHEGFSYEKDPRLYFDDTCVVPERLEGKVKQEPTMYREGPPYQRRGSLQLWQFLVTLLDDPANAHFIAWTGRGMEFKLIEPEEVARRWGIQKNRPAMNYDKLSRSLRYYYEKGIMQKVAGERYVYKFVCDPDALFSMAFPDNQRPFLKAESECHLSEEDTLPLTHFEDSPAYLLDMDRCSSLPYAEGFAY
UniProt Q99607: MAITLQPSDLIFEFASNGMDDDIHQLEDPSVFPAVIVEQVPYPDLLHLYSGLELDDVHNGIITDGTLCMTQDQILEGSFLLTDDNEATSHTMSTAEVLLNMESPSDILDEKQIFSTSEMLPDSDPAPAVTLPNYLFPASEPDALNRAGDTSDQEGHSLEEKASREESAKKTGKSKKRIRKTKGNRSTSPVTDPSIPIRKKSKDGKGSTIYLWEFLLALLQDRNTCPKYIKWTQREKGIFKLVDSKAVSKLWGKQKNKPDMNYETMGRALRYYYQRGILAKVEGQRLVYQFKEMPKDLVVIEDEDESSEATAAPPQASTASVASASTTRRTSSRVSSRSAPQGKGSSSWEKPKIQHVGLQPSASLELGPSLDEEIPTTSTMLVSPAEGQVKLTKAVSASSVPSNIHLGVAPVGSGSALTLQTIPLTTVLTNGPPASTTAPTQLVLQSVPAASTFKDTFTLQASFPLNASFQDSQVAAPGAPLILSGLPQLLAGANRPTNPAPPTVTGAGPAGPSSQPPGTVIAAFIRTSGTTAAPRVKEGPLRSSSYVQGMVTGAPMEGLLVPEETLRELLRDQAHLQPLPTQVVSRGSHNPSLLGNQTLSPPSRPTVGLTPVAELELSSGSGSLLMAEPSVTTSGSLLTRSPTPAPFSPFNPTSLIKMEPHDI

Test [1] concerns the target T1, FLI1 (UniProt Q01543).
T1 sequence: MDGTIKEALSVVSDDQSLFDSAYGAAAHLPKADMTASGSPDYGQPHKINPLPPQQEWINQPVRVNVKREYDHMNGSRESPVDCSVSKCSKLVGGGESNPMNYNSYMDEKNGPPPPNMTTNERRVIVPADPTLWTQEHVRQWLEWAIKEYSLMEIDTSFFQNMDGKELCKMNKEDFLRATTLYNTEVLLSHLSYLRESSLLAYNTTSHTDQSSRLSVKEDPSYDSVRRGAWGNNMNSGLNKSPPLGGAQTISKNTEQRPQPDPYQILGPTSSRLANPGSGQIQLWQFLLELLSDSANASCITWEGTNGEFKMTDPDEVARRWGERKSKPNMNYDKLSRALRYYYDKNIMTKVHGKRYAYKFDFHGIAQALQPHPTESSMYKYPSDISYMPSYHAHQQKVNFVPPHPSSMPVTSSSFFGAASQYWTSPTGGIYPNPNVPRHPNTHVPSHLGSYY

Test [2] has as its target T2, EHF (UniProt Q9NZC4).
T2 sequence: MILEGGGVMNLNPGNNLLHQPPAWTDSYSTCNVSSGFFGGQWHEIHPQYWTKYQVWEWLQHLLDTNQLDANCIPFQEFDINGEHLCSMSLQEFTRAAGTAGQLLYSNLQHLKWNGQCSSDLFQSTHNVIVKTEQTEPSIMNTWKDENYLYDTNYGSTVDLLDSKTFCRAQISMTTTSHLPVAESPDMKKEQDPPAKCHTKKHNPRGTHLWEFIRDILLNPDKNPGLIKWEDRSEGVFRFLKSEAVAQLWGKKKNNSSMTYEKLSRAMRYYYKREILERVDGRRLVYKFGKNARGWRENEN

The target of test [3] is SPIB (UniProt Q01892).
Test [4] deals with ETV5 (UniProt P41161).
Test [5] deals with ELF4 (UniProt Q99607).
The target of test [6] is T3, ETV2 (UniProt O00321).
T3 sequence: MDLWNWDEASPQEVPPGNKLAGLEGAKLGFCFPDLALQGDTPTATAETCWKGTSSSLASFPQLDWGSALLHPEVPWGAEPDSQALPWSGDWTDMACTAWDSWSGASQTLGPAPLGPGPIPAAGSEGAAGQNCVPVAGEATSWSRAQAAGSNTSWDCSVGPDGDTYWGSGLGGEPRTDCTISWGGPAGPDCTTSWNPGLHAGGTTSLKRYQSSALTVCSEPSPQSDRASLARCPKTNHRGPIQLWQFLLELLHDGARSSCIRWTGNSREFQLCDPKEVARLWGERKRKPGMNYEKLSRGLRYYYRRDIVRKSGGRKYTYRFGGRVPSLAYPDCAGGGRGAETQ

The target in test [7] is T4, ETV3L (UniProt Q6ZN32).
T4 sequence: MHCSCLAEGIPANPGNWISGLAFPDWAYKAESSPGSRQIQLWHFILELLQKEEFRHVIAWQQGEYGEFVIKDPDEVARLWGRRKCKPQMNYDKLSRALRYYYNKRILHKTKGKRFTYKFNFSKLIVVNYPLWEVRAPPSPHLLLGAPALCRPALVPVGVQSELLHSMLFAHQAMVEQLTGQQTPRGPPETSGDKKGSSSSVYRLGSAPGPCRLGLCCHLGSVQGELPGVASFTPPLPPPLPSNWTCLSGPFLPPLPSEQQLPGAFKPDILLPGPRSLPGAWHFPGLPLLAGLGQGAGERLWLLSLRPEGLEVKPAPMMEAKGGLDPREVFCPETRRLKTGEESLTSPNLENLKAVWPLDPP

Here are results for 30 sequences from article PMC7862700.

The entries are a selection whose mix differs from that of the whole data set. At the low end of the ranking the order means little.

For GCGGAT, the binding signal was 0.797 in test [1]; 0.87 in test [2]; 0.855 in test [3]; 0.848 in test [4]; 0.83 in test [5]; 0.968 in test [6]. The binding signal in test [7] was 0.902.

Take CCGTGA: the binding signal in test [1] came to 0.191; in test [2] it was 0.187; in test [3], 0.177; in test [4] it was 0.191; in test [5] it was 0.164; in test [6], 0.187. The binding signal in test [7] stood at 0.192.

On to TCGTAA, for which the binding signal in test [1] was 0.914; in test [2], 0.952; in test [3], 0.952; in test [4], 0.973; in test [5], 0.936; in test [6], 0.989. The binding signal in test [7] came to 0.965.

GTGATT: the binding signal in test [1] is 0.723; in test [2], 0.728; in test [3], 0.77; in test [4], 0.724; in test [5], 0.746; in test [6] it was 0.652. This sequence also returned a binding signal in test [7] of 0.773.

As to ACAGTA, the binding signal in test [1] worked out at 0.93; in test [2], 0.897; in test [3], 0.985; in test [4] it was 0.859; in test [5] it was 0.931; in test [6], 0.919. The same sequence came in with a binding signal in test [7] of 0.882.

Turning to AGATAG, the binding signal in test [1] worked out at 0.796; in test [2] it was 0.812; in test [3], 0.779; in test [4] it was 0.843; in test [5] it was 0.833; in test [6], 0.946. The binding signal in test [7] is 0.815.

As to GACTGT, the binding signal amounted to 0.44 in test [1]; 0.404 in test [2]; 0.454 in test [3]; 0.437 in test [4]; 0.427 in test [5]; 0.437 in test [6]. In test [7], this sequence had a binding signal of 0.438.

On to TCGGAA, for which the binding signal in test [1] came out at 0.541; in test [2], 0.55; in test [3], 0.561; in test [4] it was 0.596; in test [5], 0.531; in test [6], 0.468. This sequence displayed a binding signal in test [7] of 0.561.

As for TGCCAG, the binding signal amounted to 0.678 in test [1]; 0.666 in test [2]; 0.691 in test [3]; 0.722 in test [4]; 0.683 in test [5]; 0.704 in test [6]. The binding signal in test [7] came to 0.57.

Take GTAGTG: the binding signal in test [1] was determined as 0.84; in test [2], 0.806; in test [3], 0.683; in test [4], 0.764; in test [5], 0.804; in test [6], 0.73. This sequence also had a binding signal in test [7] of 0.8.

Take CGGCCG: the binding signal in test [1] was 0.931; in test [2] it was 0.871; in test [3], 0.891; in test [4], 0.862; in test [5], 0.849; in test [6], 0.838. Besides, the binding signal in test [7] was 0.847.

Take AGACTG: the binding signal in test [1] worked out at 0.536; in test [2] it was 0.527; in test [3] it was 0.512; in test [4], 0.541; in test [5], 0.564; in test [6] it was 0.489. Moreover, the binding signal in test [7] came to 0.516.

As for TGAGGC, the binding signal in test [1] came out at 0.435; in test [2], 0.429; in test [3], 0.439; in test [4] it was 0.499; in test [5], 0.433; in test [6] it was 0.481. The binding signal in test [7] was 0.461.

Take GCCGTA: the binding signal in test [1] was determined as 0.839; in test [2] it was 0.78; in test [3], 0.774; in test [4], 0.715; in test [5], 0.814; in test [6] it was 0.82. This sequence showed a binding signal in test [7] of 0.762.

In the case of TGGAGG, the binding signal in test [1] turned out to be 0.488; in test [2], 0.475; in test [3], 0.509; in test [4] it was 0.544; in test [5], 0.433; in test [6], 0.493. Further, in test [7], the binding signal stood at 0.527.

Regarding GGCCAC, the binding signal is 0.944 in test [1]; 1.03 in test [2]; 0.972 in test [3]; 0.923 in test [4]; 0.988 in test [5]; 0.871 in test [6]. Also, the binding signal in test [7] worked out at 0.887.

As for GTCCGT, the binding signal was 0.495 in test [1]; 0.5 in test [2]; 0.515 in test [3]; 0.473 in test [4]; 0.504 in test [5]; 0.544 in test [6]. Further, the binding signal in test [7] came to 0.497.

On to CACGTG, for which the binding signal stood at 0.619 in test [1]; 0.636 in test [2]; 0.691 in test [3]; 0.617 in test [4]; 0.592 in test [5]; 0.449 in test [6]. Besides, the binding signal in test [7] was 0.692.

As for ACGGCG, the binding signal in test [1] stood at 0.797; in test [2], 0.784; in test [3] it was 0.784; in test [4], 0.784; in test [5], 0.82; in test [6], 0.848. In test [7], this sequence gave a binding signal of 0.898.

Regarding TCGGCG, the binding signal is 0.501 in test [1]; 0.502 in test [2]; 0.449 in test [3]; 0.473 in test [4]; 0.565 in test [5]; 0.584 in test [6]. The binding signal in test [7] amounted to 0.523.

Turning to TGAGAG, the binding signal in test [1] worked out at 0.602; in test [2], 0.565; in test [3] it was 0.531; in test [4], 0.591; in test [5] it was 0.611; in test [6] it was 0.599. The binding signal in test [7] was found to be 0.578.

For GGTGTA, the binding signal in test [1] stood at 0.819; in test [2], 0.884; in test [3], 0.801; in test [4], 0.797; in test [5] it was 0.867; in test [6] it was 0.89. Also, the binding signal in test [7] is 0.764.

GGTGCT: the binding signal in test [1] turned out to be 0.907; in test [2] it was 0.952; in test [3], 0.833; in test [4], 0.942; in test [5], 0.88; in test [6] it was 0.911. In addition, in test [7], the binding signal amounted to 0.867.

With GGGGAG, the binding signal in test [1] amounted to 0.413; in test [2], 0.361; in test [3] it was 0.392; in test [4], 0.414; in test [5], 0.362; in test [6], 0.455. In addition, in test [7], the binding signal worked out at 0.424.

On to CAGGCC, for which the binding signal in test [1] was determined as 0.744; in test [2], 0.751; in test [3], 0.656; in test [4], 0.706; in test [5], 0.763; in test [6], 0.748. Also, the binding signal in test [7] came to 0.717.

Take GGGGTT: the binding signal in test [1] came out at 0.948; in test [2] it was 0.769; in test [3], 0.851; in test [4], 0.842; in test [5] it was 0.856; in test [6] it was 0.98. Besides, in test [7], the binding signal stood at 0.949.

Consider GCCAGC, for which the binding signal in test [1] stood at 0.795; in test [2] it was 0.736; in test [3], 0.724; in test [4] it was 0.738; in test [5], 0.789; in test [6], 0.788. Besides, the binding signal in test [7] was 0.716.

GGACGA: the binding signal in test [1] came out at 0.608; in test [2], 0.672; in test [3] it was 0.64; in test [4], 0.633; in test [5], 0.61; in test [6] it was 0.65. Besides, the binding signal in test [7] is 0.664.

CAGGGC: the binding signal in test [1] turned out to be 0.784; in test [2], 0.759; in test [3], 0.753; in test [4] it was 0.768; in test [5], 0.824; in test [6], 0.681. This sequence also returned a binding signal in test [7] of 0.784.

For the sequence GGCTGG, the binding signal in test [1] came out at 0.793; in test [2], 0.712; in test [3], 0.758; in test [4], 0.698; in test [5], 0.82; in test [6], 0.762. This sequence displayed a binding signal in test [7] of 0.789.
